# According to PubChem BioAssay AID328 (DTP/NCI, 2004):
# The list is a part of this screen's results and no random one: it gathers tests that were run many times, whatever their T/C, doses with no T/C, and many T/C values between a quarter and a half above the control. Other doses and runs of a compound stand elsewhere. T/C is the treated group as % of the vehicle group. Some entries give survivors of the animals treated and no T/C: the source files T/C as zero there, which appears to mark a toxic dose or a test without result, not a measured value. Some survivor counts are full or nearly so, which does not show that the dose was tolerated: survival well below the control is almost never listed, so the zero probably covers shortened survival too. Counts of survivors are from the toxicity check (mostly the fifth day) where no day follows; animals may have died later. Schedules are NCI's codes, taken here to give the interval after Q, in days (D) or hours (H), and the number of doses after X. For survival time, this PubChem deposit counts one and a half times the control or more as active, and values a quarter to a half above the control carry no call in these data; other NCI protocols may use other cut-offs. Some T/C values carry the count of animals alive at the toxicity check (mostly the fifth day); without a count, all were alive then.
# Test system: BDF1 mice, P388 leukemia ip, median survival T/C
# Assay: NCI In Vivo Anticancer Drug Screen. Data for tumor model P388 Leukemia (intraperitoneal) in B6D2F1 (BDF1) mice
# Conditions: T/C endpoint: median survival time, higher T/C = longer survival
# Procedure, shortened: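 Steps: implant the tumour, treat one group with compound and another with vehicle, record survival, then divide treated by control.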
compound,measurement,setting,value
COC(=O)[C@H]1[C@H]2C[C@@H]3c4[nH]c5cc(OC)ccc5c4CCN3C[C@H]2C[C@@H](OC(=O)c2cc(OC)c(OC)c(OC)c2)[C@@H]1OC,survivor count,"dose: 0.75 mg/kg/injection, schedule: Q01DX009 (ip), vehicle: saline with Tween-80",6 of 6
same,survivor count,"dose: 1.5 mg/kg/injection, schedule: Q01DX009 (ip), vehicle: saline with Tween-80",6 of 6
same,survivor count,"dose: 3.0 mg/kg/injection, schedule: Q01DX009 (ip), vehicle: saline with Tween-80",6 of 6
same,survivor count,"dose: 6.0 mg/kg/injection, schedule: Q01DX009 (ip), vehicle: saline with Tween-80",6 of 6
same,survivor count,"dose: 12.0 mg/kg/injection, schedule: Q01DX009 (ip), vehicle: saline with Tween-80",6 of 6
O=[N+]([O-])c1ccc(Cl)nc1,T/C,"dose: 50.0 mg/kg/injection, schedule: Q01DX009 (ip), vehicle: saline with Tween-80",136 % of control
same,T/C,"dose: 100.0 mg/kg/injection, schedule: Q01DX009 (ip), vehicle: saline with Tween-80",136 % of control
COc1ccc2[nH]c3c(c2c1)CCNC3CC(C)CCC=C(C)C (stereo not drawn),survivor count,"dose: 200.0 mg/kg/injection, schedule: Q01DX009 (ip), vehicle: saline with Tween-80",1 of 6
O=C(O)/C=C/c1cc2c(cc1[N+](=O)[O-])OCO2,survivor count,"dose: 400.0 mg/kg/injection, schedule: Q01DX009 (ip), vehicle: Klucel (hydroxypropylcellulose) (HPC)",6 of 6
O=c1cc(N=Nc2ccc(O)cc2)[nH]c(=O)[nH]1,T/C,"dose: 100.0 mg/kg/injection, schedule: Q04DX003 (ip), vehicle: water",127 % of control [5 of 6 alive]
O=c1[nH]c2ccccc2c(=O)n1C1CCCCC1,survivor count,"dose: 50.0 mg/kg/injection, schedule: Q01DX009 (ip), vehicle: water",6 of 6
CCC1(C)CCC2=C(CCC3C(C)(C(=O)O)CCCC23C)C1 (stereo not drawn),survivor count,"dose: 100.0 mg/kg/injection, schedule: Q04DX003 (ip), vehicle: saline with Tween-80",6 of 6
CCN1C(=O)CSC1=S,survivor count,"dose: 500.0 mg/kg/injection, schedule: Q01DX010 (ip), vehicle: saline",0 of 6
